Results on 2 molecules are retold here after PMC11750977.

The chains behind the UniProt entries cited, without tags or fusion partners. Residues count along the entry.
UniProt P35968, residues 20-1356: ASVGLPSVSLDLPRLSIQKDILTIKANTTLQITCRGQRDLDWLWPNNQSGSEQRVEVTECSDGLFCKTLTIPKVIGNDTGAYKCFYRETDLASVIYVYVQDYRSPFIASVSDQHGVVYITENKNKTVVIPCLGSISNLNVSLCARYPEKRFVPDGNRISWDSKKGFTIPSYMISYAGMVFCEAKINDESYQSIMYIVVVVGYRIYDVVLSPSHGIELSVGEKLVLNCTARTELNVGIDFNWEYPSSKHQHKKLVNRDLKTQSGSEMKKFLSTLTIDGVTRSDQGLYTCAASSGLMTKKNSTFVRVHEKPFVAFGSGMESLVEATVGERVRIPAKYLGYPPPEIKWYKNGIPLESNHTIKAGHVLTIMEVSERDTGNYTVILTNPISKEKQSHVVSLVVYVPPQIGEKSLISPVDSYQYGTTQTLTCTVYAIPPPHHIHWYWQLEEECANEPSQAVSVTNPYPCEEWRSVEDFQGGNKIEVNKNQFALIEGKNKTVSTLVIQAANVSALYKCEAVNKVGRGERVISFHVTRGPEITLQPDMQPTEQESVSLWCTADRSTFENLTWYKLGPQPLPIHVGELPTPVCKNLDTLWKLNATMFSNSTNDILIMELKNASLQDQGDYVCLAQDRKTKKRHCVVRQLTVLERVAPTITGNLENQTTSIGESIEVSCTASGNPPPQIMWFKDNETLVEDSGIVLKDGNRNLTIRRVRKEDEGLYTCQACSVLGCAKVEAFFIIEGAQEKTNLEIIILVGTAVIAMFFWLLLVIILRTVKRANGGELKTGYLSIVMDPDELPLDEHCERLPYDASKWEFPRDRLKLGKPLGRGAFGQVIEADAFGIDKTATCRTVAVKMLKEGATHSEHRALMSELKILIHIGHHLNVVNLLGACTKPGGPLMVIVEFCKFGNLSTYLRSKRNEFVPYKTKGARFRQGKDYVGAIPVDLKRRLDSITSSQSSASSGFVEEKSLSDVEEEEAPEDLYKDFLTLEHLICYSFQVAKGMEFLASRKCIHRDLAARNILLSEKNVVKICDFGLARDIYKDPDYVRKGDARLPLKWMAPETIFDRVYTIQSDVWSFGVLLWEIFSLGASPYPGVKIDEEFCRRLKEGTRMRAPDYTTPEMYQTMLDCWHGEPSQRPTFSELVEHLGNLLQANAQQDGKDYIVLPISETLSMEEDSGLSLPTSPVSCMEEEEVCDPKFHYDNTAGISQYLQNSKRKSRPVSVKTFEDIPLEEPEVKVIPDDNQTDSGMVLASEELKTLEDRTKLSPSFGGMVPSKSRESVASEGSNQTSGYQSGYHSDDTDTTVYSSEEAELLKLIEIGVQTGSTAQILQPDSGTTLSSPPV

Assay [1] has as its target T1, Myc-tagged MARCH5 in HEK293T cells (UniProt Q9NX47).
T1 sequence: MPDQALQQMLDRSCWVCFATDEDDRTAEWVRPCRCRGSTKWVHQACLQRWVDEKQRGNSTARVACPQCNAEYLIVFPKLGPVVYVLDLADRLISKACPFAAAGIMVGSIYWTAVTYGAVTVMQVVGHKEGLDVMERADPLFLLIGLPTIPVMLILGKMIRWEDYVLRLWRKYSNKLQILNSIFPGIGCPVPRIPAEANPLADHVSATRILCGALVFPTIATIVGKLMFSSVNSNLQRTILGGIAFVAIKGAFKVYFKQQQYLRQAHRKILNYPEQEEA
Description: co-IP; lysates of HEK293T cells transfected with Myc-MARCH5 and HA-VEGFR2 plasmids with or without PCDH17-Flag adenovirus; anti-Myc, anti-FLAG or anti-HA with protein A/G magnetic beads, 4 °C overnight; western blotting. For orientation: In western blotting, separated proteins are transferred to a membrane and probed.

The target of assay [2] is T2, VE-cadherin in HUVECs (human (endogenous in HUVECs)), P33151.
T2 chain: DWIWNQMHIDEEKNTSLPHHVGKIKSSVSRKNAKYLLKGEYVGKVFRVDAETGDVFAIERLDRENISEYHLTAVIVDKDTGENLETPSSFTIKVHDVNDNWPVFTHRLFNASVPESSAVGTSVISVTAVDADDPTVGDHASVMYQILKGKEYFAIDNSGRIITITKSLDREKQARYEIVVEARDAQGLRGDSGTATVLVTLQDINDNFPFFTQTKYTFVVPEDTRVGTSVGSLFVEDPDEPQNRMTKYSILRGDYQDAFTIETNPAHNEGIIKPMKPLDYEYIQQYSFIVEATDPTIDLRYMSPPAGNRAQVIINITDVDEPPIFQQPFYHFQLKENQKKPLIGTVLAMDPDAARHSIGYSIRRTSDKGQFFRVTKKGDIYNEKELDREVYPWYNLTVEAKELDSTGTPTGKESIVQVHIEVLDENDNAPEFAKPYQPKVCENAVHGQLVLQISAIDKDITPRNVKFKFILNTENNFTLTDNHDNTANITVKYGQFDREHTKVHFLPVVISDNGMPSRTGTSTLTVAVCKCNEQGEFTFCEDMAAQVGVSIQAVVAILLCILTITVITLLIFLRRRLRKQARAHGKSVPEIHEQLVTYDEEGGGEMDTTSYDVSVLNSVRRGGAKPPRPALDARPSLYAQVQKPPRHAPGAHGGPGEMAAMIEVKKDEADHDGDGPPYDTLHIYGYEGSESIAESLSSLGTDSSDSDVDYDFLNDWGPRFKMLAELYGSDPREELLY
The assay is described as follows: co-IP; lysates of HUVECs with or without PCDH17 overexpression; anti-VE-cadherin with protein A/G magnetic beads, 4 °C overnight; western blotting. To be noted: remark: other sources report otherwise.

These are yes or no findings as the source states them, for the method shown. In cells and extracts the contact can be indirect. Some entries that bind do so weakly or less than the wild type. For some assays here: Tags and fused reporters may be left off the sequences shown.

Regarding “HA-VEGFR2 in HEK293T cells (from UniProt P35968 20-1356) (receptor)”, the binding entry in assay [1] is listed as “binds”.

B1: β-catenin in HUVECs, P35222 1-781 (protein)
chain: MATQADLMELDMAMEPDRKAAVSHWQQQSYLDSGIHSGATTTAPSLSGKGNPEEEDVDTSQVLYEWEQGFSQSFTQEQVADIDGQYAMTRAQRVRAAMFPETLDEGMQIPSTQFDAAHPTNVQRLAEPSQMLKHAVVNLINYQDDAELATRAIPELTKLLNDEDQVVVNKAAVMVHQLSKKEASRHAIMRSPQMVSAIVRTMQNTNDVETARCTAGTLHNLSHHREGLLAIFKSGGIPALVKMLGSPVDSVLFYAITTLHNLLLHQEGAKMAVRLAGGLQKMVALLNKTNVKFLAITTDCLQILAYGNQESKLIILASGGPQALVNIMRTYTYEKLLWTTSRVLKVLSVCSSNKPAIVEAGGMQALGLHLTDPSQRLVQNCLWTLRNLSDAATKQEGMEGLLGTLVQLLGSDDINVVTCAAGILSNLTCNNYKNKMMVCQVGGIEALVRTVLRAGDREDITEPAICALRHLTSRHQEAEMAQNAVRLHYGLPVVVKLLHPPSHWPLIKATVGLIRNLALCPANHAPLREQGAIPRLVQLLVRAHQDTQRRTSMGGTQQQFVEGVRMEEIVEGCTGALHILARDVHNRIVIRGLNTIPLFVQLLYSPIENIQRVAAGVLCELAQDKEAAEAIEAEGATAPLTELLHSRNEGVATYAAAVLFRMSEDKPQDYKKRLSVELTSSLFRTEPMAWNETADLGLDIGAQGEPLGYRQDDPSYRSFHSGGYGQDALGMDPMMEHEMGGHHPGADYPVDGLPDLGHAQDLMDGLPPGDSNQLAWFDTDL
Turning to B1, the binding entry in assay [2] is “binds”.
